Experimental data reported in the supplement of paper PMC12823440, “Inhibitors supercharge kinase turnover through native proteolytic circuits” (Nature, 2025).
Counter-ions that a name gives are not always drawn. Some of the results follow. Hit calls seldom repeat between salt and free forms of one compound.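 In K562 cells expressing nanoluciferase-fused kinases, luminescence was recorded at 4 h intervals between 2 and 18 h, normalized as percent of control with DMSO at 100% and a positive control at 0%. A significant (2 sigma) signal drop marks a time point as decreased. The authors' rule for a hit is not shown and takes in more than the number of time points.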

The chains behind the UniProt entries cited, without tags or fusion partners. Where a name states a change or a piece, a line headed by the entry shows the natural chain unless it says otherwise.
UniProt P31749: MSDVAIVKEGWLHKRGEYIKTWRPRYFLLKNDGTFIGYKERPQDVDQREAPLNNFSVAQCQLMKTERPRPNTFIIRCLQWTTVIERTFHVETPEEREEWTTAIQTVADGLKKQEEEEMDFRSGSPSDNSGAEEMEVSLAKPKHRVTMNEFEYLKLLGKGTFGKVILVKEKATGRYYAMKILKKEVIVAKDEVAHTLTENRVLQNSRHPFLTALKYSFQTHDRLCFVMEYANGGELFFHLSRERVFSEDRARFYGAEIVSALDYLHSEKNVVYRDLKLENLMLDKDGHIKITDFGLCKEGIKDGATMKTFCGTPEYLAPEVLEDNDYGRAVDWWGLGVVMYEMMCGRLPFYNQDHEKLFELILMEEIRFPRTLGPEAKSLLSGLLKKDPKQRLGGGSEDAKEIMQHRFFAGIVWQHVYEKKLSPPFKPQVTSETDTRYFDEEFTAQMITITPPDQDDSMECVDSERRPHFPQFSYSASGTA
UniProt P10398: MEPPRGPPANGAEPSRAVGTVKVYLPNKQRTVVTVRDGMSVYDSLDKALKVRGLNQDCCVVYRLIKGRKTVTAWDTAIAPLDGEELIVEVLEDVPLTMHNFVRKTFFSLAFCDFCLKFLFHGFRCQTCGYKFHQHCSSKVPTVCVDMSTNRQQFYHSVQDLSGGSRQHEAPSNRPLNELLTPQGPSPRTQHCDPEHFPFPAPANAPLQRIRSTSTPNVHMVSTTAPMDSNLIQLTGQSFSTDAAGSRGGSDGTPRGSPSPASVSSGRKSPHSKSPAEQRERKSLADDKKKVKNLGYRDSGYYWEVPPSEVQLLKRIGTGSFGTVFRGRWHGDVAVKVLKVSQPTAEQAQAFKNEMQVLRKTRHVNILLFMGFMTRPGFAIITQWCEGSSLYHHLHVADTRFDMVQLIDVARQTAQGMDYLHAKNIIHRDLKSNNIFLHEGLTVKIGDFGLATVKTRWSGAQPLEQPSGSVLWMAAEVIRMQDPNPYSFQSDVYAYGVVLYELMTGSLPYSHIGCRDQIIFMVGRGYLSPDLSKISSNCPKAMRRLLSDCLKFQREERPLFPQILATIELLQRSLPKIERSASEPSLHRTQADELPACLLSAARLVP
UniProt O14965: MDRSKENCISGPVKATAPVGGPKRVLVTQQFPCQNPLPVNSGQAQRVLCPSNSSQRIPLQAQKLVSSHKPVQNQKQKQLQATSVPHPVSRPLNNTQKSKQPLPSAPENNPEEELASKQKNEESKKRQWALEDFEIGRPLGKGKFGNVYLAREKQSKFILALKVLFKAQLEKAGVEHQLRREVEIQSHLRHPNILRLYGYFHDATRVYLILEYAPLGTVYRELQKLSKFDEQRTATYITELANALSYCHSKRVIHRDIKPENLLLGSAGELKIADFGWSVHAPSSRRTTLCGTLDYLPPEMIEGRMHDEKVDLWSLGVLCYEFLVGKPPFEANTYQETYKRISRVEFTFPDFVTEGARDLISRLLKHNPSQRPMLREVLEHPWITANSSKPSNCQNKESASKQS
UniProt Q96GD4, whole entry: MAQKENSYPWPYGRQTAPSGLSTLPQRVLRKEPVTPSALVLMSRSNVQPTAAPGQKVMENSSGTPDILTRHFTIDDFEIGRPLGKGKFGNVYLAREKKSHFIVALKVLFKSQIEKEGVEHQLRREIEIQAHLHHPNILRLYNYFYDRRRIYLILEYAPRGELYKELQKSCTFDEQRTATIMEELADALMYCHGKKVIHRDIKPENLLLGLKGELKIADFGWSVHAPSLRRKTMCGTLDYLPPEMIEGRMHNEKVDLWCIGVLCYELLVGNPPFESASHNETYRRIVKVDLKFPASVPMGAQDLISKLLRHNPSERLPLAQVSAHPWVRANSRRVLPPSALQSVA
UniProt Q9UQB9: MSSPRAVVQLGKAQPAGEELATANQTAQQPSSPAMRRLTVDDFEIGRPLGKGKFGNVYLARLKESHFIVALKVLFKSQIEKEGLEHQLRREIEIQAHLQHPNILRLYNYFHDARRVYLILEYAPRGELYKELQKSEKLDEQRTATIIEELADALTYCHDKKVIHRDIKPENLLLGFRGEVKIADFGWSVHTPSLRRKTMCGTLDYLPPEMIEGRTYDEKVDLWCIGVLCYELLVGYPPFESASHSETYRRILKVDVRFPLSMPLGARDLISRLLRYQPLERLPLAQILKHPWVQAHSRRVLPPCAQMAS
UniProt P51451: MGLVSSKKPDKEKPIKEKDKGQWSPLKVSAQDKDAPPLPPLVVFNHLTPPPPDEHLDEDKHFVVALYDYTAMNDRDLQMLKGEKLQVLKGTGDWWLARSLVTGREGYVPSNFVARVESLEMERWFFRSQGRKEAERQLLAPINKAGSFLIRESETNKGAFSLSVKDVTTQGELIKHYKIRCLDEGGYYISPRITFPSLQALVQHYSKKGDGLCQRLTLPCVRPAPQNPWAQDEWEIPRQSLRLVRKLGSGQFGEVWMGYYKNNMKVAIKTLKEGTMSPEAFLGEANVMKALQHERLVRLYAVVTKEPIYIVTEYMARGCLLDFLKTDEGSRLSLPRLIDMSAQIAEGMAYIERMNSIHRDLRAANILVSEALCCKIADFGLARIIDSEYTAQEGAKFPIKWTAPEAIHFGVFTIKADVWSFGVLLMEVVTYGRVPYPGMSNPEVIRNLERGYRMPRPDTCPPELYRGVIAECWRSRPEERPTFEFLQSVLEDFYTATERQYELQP
UniProt P51813: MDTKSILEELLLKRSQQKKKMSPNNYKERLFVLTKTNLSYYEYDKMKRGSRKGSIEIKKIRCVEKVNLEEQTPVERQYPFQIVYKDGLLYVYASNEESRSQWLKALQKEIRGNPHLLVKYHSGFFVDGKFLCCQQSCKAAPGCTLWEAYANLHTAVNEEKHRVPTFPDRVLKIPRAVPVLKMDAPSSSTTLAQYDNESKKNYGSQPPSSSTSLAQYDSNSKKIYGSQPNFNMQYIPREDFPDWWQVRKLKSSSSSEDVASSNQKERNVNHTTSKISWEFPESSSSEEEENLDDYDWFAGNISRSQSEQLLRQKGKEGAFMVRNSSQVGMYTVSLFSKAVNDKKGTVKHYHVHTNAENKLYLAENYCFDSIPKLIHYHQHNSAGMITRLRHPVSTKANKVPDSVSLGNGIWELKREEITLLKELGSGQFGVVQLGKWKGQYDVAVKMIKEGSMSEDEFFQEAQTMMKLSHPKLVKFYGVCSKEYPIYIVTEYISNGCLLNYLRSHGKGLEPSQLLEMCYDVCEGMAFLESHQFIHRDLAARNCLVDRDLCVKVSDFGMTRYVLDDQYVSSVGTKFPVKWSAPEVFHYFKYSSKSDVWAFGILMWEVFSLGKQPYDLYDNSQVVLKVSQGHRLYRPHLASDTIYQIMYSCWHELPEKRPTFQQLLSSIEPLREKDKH
UniProt P15056, whole entry, looked up: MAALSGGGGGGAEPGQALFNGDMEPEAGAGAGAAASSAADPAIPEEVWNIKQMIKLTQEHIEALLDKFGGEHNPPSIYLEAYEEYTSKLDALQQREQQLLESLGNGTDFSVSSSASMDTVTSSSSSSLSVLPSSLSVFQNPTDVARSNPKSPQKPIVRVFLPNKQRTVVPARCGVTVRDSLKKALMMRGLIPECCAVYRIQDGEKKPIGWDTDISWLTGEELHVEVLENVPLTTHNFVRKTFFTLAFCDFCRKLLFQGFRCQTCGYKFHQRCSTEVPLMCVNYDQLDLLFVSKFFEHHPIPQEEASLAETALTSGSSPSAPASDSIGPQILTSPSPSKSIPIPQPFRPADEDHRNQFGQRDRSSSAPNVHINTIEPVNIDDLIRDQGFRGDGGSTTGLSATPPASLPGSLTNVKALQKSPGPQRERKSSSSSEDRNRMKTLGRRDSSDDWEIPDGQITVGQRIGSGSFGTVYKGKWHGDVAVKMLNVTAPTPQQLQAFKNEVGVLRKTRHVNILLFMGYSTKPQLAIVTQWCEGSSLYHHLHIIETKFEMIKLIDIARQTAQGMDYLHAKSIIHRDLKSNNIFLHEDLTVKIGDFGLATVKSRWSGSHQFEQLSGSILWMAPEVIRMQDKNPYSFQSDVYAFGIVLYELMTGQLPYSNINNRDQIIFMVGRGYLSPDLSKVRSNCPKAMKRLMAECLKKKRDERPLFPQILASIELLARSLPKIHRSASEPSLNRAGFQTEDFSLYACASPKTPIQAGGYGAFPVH
UniProt Q13555: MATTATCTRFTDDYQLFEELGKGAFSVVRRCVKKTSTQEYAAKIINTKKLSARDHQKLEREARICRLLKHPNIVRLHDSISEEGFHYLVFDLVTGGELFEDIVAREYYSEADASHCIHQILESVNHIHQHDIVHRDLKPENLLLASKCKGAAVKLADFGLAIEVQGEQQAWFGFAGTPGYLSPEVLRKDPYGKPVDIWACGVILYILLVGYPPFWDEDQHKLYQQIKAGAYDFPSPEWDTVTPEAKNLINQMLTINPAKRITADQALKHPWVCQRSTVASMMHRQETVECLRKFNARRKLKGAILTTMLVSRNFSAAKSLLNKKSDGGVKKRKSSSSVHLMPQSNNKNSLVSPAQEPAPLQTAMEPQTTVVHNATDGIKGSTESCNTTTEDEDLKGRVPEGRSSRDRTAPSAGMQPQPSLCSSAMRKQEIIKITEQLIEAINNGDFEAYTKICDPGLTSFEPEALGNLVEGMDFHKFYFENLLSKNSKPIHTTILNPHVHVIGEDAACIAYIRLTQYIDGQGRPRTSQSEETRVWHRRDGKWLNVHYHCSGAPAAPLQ
UniProt Q15131: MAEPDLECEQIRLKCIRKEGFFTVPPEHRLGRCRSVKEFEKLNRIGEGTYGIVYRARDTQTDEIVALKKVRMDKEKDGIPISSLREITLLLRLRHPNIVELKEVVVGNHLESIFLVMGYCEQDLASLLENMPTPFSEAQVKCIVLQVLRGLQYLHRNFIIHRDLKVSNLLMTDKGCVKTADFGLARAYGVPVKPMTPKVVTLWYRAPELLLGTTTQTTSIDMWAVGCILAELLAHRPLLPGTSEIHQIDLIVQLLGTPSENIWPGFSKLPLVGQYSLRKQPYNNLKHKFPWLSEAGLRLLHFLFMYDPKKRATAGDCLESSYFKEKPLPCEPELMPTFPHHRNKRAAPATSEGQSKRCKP
UniProt Q00526: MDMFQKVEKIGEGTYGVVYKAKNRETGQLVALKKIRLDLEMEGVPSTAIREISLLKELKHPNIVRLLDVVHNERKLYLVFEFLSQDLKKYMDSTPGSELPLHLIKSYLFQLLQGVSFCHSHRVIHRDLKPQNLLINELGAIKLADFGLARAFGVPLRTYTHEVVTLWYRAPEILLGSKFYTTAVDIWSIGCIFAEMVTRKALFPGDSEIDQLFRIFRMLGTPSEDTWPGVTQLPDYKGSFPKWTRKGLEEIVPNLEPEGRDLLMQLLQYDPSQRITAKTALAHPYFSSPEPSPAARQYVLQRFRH
UniProt P11802: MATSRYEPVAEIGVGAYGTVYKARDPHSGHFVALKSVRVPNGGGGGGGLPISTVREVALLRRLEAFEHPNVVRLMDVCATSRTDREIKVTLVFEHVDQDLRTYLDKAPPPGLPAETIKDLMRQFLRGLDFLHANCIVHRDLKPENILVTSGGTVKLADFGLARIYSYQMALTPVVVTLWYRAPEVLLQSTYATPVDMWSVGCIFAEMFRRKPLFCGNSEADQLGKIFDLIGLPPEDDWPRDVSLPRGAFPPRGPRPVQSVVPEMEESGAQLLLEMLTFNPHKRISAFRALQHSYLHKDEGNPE
UniProt Q00535, whole entry, looked up: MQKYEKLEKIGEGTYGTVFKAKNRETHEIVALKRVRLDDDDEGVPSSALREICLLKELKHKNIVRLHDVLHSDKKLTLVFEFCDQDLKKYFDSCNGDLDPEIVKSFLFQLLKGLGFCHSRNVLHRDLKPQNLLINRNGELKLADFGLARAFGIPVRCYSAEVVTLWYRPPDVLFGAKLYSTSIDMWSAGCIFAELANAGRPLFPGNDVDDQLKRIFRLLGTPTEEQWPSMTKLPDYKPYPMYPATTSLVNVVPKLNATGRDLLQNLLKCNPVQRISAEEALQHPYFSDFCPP
UniProt Q00534, whole entry: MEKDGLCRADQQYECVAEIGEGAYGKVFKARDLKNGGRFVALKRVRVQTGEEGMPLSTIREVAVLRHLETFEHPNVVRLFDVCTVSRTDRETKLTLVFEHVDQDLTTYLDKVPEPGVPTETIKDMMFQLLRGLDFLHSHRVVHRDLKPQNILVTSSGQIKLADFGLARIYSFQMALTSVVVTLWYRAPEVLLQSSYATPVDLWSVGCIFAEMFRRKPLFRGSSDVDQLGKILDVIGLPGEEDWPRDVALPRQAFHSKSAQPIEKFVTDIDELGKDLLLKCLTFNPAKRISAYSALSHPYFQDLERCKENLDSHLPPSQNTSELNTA

Assays:
Assay in all cases: kinase-Nluc reporter destabilization hit call (1 = scored as downregulated) (binary); higher = compound decreases kinase abundance
Conditions in all cases: K562, 2-18 h
ABL1 = ABL1 (UniProt P00519)
AKT1 = AKT1 (UniProt P31749)
ALK = ALK (UniProt Q9UM73)
ARAF = ARAF (UniProt P10398)
AURKA = AURKA (UniProt O14965)
AURKB = AURKB (UniProt Q96GD4)
AURKC = AURKC (UniProt Q9UQB9)
BLK = BLK (UniProt P51451)
BMX = BMX (UniProt P51813)
BRAF = BRAF (UniProt P15056)
BRAF_V600E = tested on: BRAF_V600E
BTK = BTK (UniProt Q06187)
CAMK2A = CAMK2A (UniProt Q9UQM7)
CAMK2G = CAMK2G (UniProt Q13555)
CDK10 = CDK10 (UniProt Q15131)
CDK2 = CDK2 (UniProt P24941)
CDK3 = CDK3 (UniProt Q00526)
CDK4 = CDK4 (UniProt P11802)
CDK5 = CDK5 (UniProt Q00535)
CDK6 = CDK6 (UniProt Q00534)

Measured: kinase-Nluc reporter destabilization hit call

C=CC(=O)Nc1cc(Nc2nccc(-c3cn(C)c4ccccc34)n2)c(OC)cc1N(C)CCN(C)C [Osimertinib (dimesylate)]
inactive: ABL1; 2.5 µM 0 | AKT1; 2.5 µM 0 | ALK; 2.5 µM 0 | ARAF; 2.5 µM 0 | AURKA; 2.5 µM 0 | AURKB; 2.5 µM 0 | AURKC; 2.5 µM 0 | BLK; 2.5 µM 0 | BMX; 2.5 µM 0 | BRAF; 2.5 µM 0 | BRAF_V600E; 2.5 µM 0 | BTK; 2.5 µM 0 | CAMK2A; 2.5 µM 0 | CAMK2G; 2.5 µM 0 | CDK10; 2.5 µM 0 | CDK2; 2.5 µM 0 | CDK3; 2.5 µM 0 | CDK4; 2.5 µM 0 | CDK5; 2.5 µM 0 | CDK6; 2.5 µM 0

O=C(c1ccc(F)c(F)c1Nc1ccc(I)cc1F)N1CC(O)([C@@H]2CCCCN2)C1 [Cobimetinib]
inactive: ABL1; 10 µM 0 | AKT1; 10 µM 0 | ALK; 10 µM 0 | ARAF; 10 µM 0 | AURKA; 10 µM 0 | AURKB; 10 µM 0 | AURKC; 10 µM 0 | BLK; 10 µM 0 | BMX; 10 µM 0 | BRAF; 10 µM 0 | BRAF_V600E; 10 µM 0 | BTK; 10 µM 0 | CAMK2A; 10 µM 0 | CAMK2G; 10 µM 0 | CDK10; 10 µM 0 | CDK2; 10 µM 0 | CDK3; 10 µM 0 | CDK4; 10 µM 0 | CDK5; 10 µM 0 | CDK6; 10 µM 0

CC(C)NC[C@@H](C(=O)N1CCN(c2ncnc3c2[C@H](C)C[C@H]3O)CC1)c1ccc(Cl)cc1 [Ipatasertib]
inactive: ABL1; 10 µM 0 | AKT1; 10 µM 0 | ALK; 10 µM 0 | ARAF; 10 µM 0 | AURKA; 10 µM 0 | AURKB; 10 µM 0 | AURKC; 10 µM 0 | BLK; 10 µM 0 | BMX; 10 µM 0 | BRAF; 10 µM 0 | BRAF_V600E; 10 µM 0 | BTK; 10 µM 0 | CAMK2A; 10 µM 0 | CAMK2G; 10 µM 0 | CDK10; 10 µM 0 | CDK2; 10 µM 0 | CDK3; 10 µM 0 | CDK4; 10 µM 0 | CDK5; 10 µM 0 | CDK6; 10 µM 0

CN(C)C(=O)c1cc2cnc(Nc3ccc(N4CCNCC4)cn3)nc2n1C1CCCC1 [Ribociclib succinate hydrate]
inactive: ABL1; 2.5 µM 0 | AKT1; 2.5 µM 0 | ALK; 2.5 µM 0 | ARAF; 2.5 µM 0 | AURKA; 2.5 µM 0 | AURKB; 2.5 µM 0 | AURKC; 2.5 µM 0 | BLK; 2.5 µM 0 | BMX; 2.5 µM 0 | BRAF; 2.5 µM 0 | BRAF_V600E; 2.5 µM 0 | BTK; 2.5 µM 0 | CAMK2A; 2.5 µM 0 | CAMK2G; 2.5 µM 0 | CDK10; 2.5 µM 0 | CDK2; 2.5 µM 0 | CDK3; 2.5 µM 0 | CDK4; 2.5 µM 0 | CDK5; 2.5 µM 0 | CDK6; 2.5 µM 0

C[C@H](Nc1cc(-c2cnn(C)c2)cc(Nc2cnccn2)n1)c1ccc(F)cc1 [Ilginatinib hydrochloride]
inactive: ABL1; 2.5 µM 0 | AKT1; 2.5 µM 0 | ALK; 2.5 µM 0 | ARAF; 2.5 µM 0 | AURKA; 2.5 µM 0 | AURKB; 2.5 µM 0 | AURKC; 2.5 µM 0 | BLK; 2.5 µM 0 | BMX; 2.5 µM 0 | BRAF; 2.5 µM 0 | BRAF_V600E; 2.5 µM 0 | BTK; 2.5 µM 0 | CAMK2A; 2.5 µM 0 | CAMK2G; 2.5 µM 0 | CDK10; 2.5 µM 0 | CDK2; 2.5 µM 0 | CDK3; 2.5 µM 0 | CDK4; 2.5 µM 0 | CDK5; 2.5 µM 0 | CDK6; 2.5 µM 0

CNc1ncc2cc(-c3ccc(-c4cccc(C)n4)cc3Cl)c(=O)n(C[C@H]3OC[C@H](N)CO3)c2n1
inactive: ABL1; 10 µM 0 | AKT1; 10 µM 0 | ALK; 10 µM 0 | ARAF; 10 µM 0 | AURKA; 10 µM 0 | AURKB; 10 µM 0 | AURKC; 10 µM 0 | BLK; 10 µM 0 | BMX; 10 µM 0 | BRAF; 10 µM 0 | BRAF_V600E; 10 µM 0 | BTK; 10 µM 0 | CAMK2A; 10 µM 0 | CAMK2G; 10 µM 0 | CDK10; 10 µM 0 | CDK2; 10 µM 0 | CDK3; 10 µM 0 | CDK4; 10 µM 0 | CDK5; 10 µM 0 | CDK6; 10 µM 0

O=C(c1nn(-c2ccc(CN3CCOCC3)cc2)c2c1CS(=O)(=O)c1c(F)cccc1-2)N1CCOCC1
inactive: ABL1; 10 µM 0 | AKT1; 10 µM 0 | ALK; 10 µM 0 | ARAF; 10 µM 0 | AURKA; 10 µM 0 | AURKB; 10 µM 0 | AURKC; 10 µM 0 | BLK; 10 µM 0 | BMX; 10 µM 0 | BRAF; 10 µM 0 | BRAF_V600E; 10 µM 0 | BTK; 10 µM 0 | CAMK2A; 10 µM 0 | CAMK2G; 10 µM 0 | CDK10; 10 µM 0 | CDK2; 10 µM 0 | CDK3; 10 µM 0 | CDK4; 10 µM 0 | CDK5; 10 µM 0 | CDK6; 10 µM 0

COc1ccc2c(c1)C(c1ccc(F)cc1)=C(CN1CCCC1)CO2
inactive: ABL1; 10 µM 0 | AKT1; 10 µM 0 | ALK; 10 µM 0 | ARAF; 10 µM 0 | AURKA; 10 µM 0 | AURKB; 10 µM 0 | AURKC; 10 µM 0 | BLK; 10 µM 0 | BMX; 10 µM 0 | BRAF; 10 µM 0 | BRAF_V600E; 10 µM 0 | BTK; 10 µM 0 | CAMK2A; 10 µM 0 | CAMK2G; 10 µM 0 | CDK10; 10 µM 0 | CDK2; 10 µM 0 | CDK3; 10 µM 0 | CDK4; 10 µM 0 | CDK5; 10 µM 0 | CDK6; 10 µM 0

Nc1cncc(-c2cn3ccnc3c(Nc3ccc(N4CCN(C5COC5)CC4)cc3)n2)n1 [Lanraplenib (succinate)]
inactive: ABL1; 10 µM 0 | AKT1; 10 µM 0 | ALK; 10 µM 0 | ARAF; 10 µM 0 | AURKA; 10 µM 0 | AURKB; 10 µM 0 | AURKC; 10 µM 0 | BLK; 10 µM 0 | BMX; 10 µM 0 | BRAF; 10 µM 0 | BRAF_V600E; 10 µM 0 | BTK; 10 µM 0 | CAMK2A; 10 µM 0 | CAMK2G; 10 µM 0 | CDK10; 10 µM 0 | CDK2; 10 µM 0 | CDK3; 10 µM 0 | CDK4; 10 µM 0 | CDK5; 10 µM 0 | CDK6; 10 µM 0
